{
  "sequences": {"note": "Amino acid sequences for entries named in this document (tags omitted). Residues count along the entry.", "UniProt P36544, residues 23-502": "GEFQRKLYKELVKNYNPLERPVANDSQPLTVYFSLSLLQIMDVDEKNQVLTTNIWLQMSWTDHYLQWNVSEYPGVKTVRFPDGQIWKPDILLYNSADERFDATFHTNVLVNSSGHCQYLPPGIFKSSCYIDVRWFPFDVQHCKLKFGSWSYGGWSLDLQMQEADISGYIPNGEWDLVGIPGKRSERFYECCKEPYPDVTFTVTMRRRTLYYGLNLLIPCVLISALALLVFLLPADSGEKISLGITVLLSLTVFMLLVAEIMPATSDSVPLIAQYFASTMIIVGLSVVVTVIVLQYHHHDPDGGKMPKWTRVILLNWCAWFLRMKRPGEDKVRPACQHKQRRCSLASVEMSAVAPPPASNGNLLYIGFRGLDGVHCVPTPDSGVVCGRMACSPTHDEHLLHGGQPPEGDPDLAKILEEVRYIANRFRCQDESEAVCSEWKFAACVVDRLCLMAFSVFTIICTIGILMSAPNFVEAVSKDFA", "UniProt Q05941, residues 23-502": "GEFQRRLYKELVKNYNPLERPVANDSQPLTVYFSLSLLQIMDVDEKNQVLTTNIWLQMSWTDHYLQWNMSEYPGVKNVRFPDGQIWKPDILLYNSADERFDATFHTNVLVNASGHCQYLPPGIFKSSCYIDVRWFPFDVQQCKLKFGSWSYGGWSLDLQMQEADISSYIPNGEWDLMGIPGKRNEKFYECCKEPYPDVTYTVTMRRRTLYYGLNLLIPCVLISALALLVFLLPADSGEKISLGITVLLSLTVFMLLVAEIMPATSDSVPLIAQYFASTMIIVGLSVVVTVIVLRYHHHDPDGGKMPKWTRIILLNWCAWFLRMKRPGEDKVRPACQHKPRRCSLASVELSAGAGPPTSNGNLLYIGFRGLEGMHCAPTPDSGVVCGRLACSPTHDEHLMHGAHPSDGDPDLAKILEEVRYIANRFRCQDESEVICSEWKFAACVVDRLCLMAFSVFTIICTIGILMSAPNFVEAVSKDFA", "UniProt P60615, residues 22-95": "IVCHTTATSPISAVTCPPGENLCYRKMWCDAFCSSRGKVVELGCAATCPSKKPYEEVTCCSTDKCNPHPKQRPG"},
  "source": "paper PMC7175337",
  "key": {"Human α7nAChR (human)": {"biological_target": "Human α7nAChR (human) (UniProt P36544)", "assay": "radioligand binding; only the binder purified"}, "Rat α7nAChR (rat)": {"biological_target": "Rat α7nAChR (rat) (UniProt Q05941)", "assay": "radioligand binding; only the binder purified"}},
  "note": "Results are given in words; binding and its absence hold for the method and conditions named. Some results given as binding are weak or reduced against the parent protein; the word gives no strength.",
  "data": [
    {"substance": "α-Bungarotoxin (from UniProt P60615 22-95) (ligand)", "values": [
      {"measurement": "binding", "setting": "Human α7nAChR (human)", "value": "binds"},
      {"measurement": "binding", "setting": "Rat α7nAChR (rat)", "value": "binds"}
    ]}
  ]
}
